According to patent US7576226B2, “Process of making isomers of norelgestromin and methods using the same” (priority 2003, dated 2009):
At least one compound was matched to its structure with a doubt left.

Assay: CHI of six steroids (structure-absorption experiment)
Format: physicochemical
Conditions: chromatographical hydrophobicity index, isocratical conditions
Procedure: The beneficial effect of the increasing lipophilicity for the transdermal absorption was proven by carrying out a structure-absorption experiment with six different steroids. In the following publications: Int. J. Pharm. 217:1 (2001), and J. Chromatography 49:631 (1993), it has been shown that the chromatographical hydrophobicity index (CHI) measured under isocratical conditions is a reliable descriptor of lipophilicity. The CHI values of the investigated steroids were determined according to these experiments (Table 3) and correlated with the measured stratum corneum/water distribution coefficients.

C[C@]12CC[C@@H]3c4ccc(O)cc4CC[C@H]3[C@@H]1CC[C@@H]2O [Estradiol]
CHI: 65.19
